Common to all, as to experiment: co-IP; endogenous proteins in NP-40 lysates of Ocy, 48 h after Pam3CSK4 or PBS stimulation; 300 µg total protein with 1 µg anti-CREB, anti-CBP or anti-STAT3 antibody at 4 °C overnight, protein A/G-Plus-Agarose, three washes with lysis buffer, Western blotting for FBXL19 or PDLIM2; Pam3CSK4 decreased the complex formation
For orientation: Immunoblotting shows a protein as a band on a membrane.

The chains behind the UniProt entries cited, without tags or fusion partners.
UniProt Q01147: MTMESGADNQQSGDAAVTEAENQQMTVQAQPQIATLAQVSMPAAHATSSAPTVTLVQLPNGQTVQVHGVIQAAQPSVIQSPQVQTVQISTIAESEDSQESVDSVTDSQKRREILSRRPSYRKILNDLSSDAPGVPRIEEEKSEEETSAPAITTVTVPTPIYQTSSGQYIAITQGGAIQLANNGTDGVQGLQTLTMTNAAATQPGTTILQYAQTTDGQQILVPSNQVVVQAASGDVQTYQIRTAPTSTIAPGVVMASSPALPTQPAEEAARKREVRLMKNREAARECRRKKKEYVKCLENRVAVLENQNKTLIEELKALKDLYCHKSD
UniProt P45481: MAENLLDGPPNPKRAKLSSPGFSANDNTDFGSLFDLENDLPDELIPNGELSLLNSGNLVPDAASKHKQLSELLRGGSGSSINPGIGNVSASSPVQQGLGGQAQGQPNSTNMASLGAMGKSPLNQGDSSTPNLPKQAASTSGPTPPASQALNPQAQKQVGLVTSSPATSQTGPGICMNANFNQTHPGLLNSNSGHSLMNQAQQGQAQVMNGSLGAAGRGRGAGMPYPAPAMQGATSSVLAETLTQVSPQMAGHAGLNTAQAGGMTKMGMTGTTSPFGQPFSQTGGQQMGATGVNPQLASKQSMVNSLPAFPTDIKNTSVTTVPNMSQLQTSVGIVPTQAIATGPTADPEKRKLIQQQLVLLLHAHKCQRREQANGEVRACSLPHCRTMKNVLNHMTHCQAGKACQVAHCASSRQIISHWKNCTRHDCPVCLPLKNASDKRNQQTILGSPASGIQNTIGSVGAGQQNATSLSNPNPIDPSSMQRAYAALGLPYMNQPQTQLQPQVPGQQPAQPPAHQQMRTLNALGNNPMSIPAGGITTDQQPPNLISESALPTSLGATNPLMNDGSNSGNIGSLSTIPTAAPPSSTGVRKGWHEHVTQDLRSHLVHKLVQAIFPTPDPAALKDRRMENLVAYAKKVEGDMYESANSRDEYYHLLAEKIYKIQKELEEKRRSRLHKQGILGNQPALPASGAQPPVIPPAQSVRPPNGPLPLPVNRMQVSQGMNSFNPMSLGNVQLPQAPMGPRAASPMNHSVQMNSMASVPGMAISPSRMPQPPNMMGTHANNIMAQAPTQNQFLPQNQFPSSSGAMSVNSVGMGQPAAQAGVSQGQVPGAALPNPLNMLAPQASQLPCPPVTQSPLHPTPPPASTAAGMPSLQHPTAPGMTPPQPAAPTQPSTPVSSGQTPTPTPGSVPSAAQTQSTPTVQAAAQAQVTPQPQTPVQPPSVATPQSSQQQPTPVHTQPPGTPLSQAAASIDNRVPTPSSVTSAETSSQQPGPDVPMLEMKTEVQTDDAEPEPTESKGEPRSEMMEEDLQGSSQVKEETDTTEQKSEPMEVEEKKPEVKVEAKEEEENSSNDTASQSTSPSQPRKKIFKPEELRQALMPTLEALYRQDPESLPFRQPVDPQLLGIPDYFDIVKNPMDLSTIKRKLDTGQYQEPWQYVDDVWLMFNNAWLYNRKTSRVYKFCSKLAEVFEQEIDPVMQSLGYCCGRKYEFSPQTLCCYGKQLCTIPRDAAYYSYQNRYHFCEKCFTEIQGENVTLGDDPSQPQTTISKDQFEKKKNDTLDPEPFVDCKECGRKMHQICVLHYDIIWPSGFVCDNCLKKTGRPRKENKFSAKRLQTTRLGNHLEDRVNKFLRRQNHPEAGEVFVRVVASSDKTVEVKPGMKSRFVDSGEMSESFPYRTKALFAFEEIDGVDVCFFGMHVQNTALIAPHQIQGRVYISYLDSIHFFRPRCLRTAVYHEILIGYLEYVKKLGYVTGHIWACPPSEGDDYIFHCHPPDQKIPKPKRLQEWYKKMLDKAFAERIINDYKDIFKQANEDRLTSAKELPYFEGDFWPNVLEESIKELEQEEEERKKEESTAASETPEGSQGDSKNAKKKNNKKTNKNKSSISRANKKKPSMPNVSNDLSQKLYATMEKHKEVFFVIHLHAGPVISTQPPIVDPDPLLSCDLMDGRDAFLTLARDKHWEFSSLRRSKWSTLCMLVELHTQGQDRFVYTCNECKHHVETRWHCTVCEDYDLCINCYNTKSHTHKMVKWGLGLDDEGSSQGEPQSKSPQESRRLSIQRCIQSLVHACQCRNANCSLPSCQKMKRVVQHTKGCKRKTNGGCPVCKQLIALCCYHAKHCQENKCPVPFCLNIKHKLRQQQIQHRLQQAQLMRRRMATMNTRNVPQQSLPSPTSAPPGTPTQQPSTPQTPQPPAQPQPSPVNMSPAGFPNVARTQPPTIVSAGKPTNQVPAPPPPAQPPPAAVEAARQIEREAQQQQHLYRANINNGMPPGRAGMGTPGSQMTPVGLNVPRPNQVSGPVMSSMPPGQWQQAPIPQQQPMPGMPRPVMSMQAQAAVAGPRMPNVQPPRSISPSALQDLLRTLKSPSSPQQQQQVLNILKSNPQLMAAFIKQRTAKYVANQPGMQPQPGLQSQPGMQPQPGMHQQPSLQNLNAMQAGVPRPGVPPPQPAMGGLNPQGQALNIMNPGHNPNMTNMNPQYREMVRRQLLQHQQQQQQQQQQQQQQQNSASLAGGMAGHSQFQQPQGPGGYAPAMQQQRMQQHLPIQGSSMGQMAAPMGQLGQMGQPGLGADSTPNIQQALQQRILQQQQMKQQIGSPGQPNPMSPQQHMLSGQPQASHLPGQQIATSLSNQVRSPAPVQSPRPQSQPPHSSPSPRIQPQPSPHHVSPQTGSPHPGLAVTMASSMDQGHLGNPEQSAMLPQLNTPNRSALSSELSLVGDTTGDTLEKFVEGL
UniProt P42227: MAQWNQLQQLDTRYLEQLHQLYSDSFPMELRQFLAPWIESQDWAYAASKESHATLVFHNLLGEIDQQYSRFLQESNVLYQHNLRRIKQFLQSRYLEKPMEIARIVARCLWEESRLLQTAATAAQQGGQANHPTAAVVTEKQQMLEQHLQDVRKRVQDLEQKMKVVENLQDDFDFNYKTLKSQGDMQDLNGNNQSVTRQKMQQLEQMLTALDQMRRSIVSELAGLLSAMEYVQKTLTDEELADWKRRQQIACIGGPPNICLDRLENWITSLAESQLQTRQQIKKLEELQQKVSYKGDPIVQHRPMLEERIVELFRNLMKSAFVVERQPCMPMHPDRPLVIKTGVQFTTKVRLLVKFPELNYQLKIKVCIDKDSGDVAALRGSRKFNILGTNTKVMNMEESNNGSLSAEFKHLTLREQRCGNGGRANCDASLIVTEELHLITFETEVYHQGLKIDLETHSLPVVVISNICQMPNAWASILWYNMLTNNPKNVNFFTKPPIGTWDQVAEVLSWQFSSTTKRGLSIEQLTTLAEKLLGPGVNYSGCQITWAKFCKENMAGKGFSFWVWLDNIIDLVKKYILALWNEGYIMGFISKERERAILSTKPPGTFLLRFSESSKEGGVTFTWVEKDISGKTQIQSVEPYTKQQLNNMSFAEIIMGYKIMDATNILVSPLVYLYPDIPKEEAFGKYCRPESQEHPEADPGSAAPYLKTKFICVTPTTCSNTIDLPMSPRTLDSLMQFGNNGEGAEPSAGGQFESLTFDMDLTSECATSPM

The target of assay [1] is cAMP responsive element binding protein (mouse (endogenous in osteocyte-enriched calvarial cells)) (UniProt Q01147).
Assay [2] concerns the target CREB binding protein (mouse (endogenous in osteocyte-enriched calvarial cells)) (UniProt P45481).
Assay [3] has as its target signal transducer and activator of transcription 3 (mouse (endogenous in osteocyte-enriched calvarial cells)) (UniProt P42227).

These are yes or no findings as the source states them, for the method shown. Binding seen in cells or lysates may run through a third protein. Some binding calls cover weakened binding; strength is not graded here.

B1: F-box and leucine-rich repeat protein 19 (protein, UniProt Q6PB97 1-674)
chain: MSSSSRGPGAGARRRRTRCRRCRACVRTECGDCHFCRDMKKFGGPGRMKQSCLLRQCTAPVLPHTAVCLLCGEAGKEDTVEGEDEKFSLSLMECTICNEIVHPGCLKMGKAEGVINSEIPNCWECPRCTQEGRTSKDAGEGPGRRRADNGEEGANLGGGWKLTEEPPPPPPLPRRKGPLPAGPTPDDVPGPPKRKEREGGNEPPTPRKKVKGGRERHLKKVGGDACLLRGADPGSPGLLPPRVLNPSQAFSSCHPGLPPENWEKPKPPIASAEGPAVPSPSPQREKLERFKRMCQLLERVPDTSSSSSDSDSDSDSSGTSLSEDEAPGEARNGRRPARGSSGEKENRGGRRAIRPGTGGPLLSWPLGPAPPPRPPQLERHVVRPPPRSPEPDTLPLAAGSDHPLPRAAWLRVFQHLGPRELCVCMRVCRTWSRWCYDKRLWPRMDLSRRKSLTPPMLSGVVRRQPRALDLSWTGVSKKQLMWLLNRLQGLQELVLSGCSWLSVSALGSAPLPALRLLDLRWIEDVKDSQLRELLLPPPDTKPGQTESRGRLQGVAELRLAGLELTDASLRLLLRHAPQLSALDLSHCAHVGDPSVHLLTAPTSPLRETLVHLNLAGCHRLTDHCLPLFRRCPRLRRLDLRSCRQLSPEACARLAAAGPPGPFRCPEEKLLLKDS
On to B1, for which the binding entry in assay [1] and in assay [2] was “binds” in each case.

B2: PDZ and LIM domain 2 (protein, UniProt Q8R1G6 1-349)
chain: MALTVDVAGPAPWGFRISGGRDFHTPIIVTKVTERGKAEAADLRPGDIIVAINGQSAENMLHAEAQSKIRQSASPLRLQLDRSQTASPGQTNGEGSLEVLATRFQGSLRTHRDSQSSQRSACFSPVSLSPRPCSPFSTPPPTSPVALSKEDMIGCSFQSLTHSPGLAAAHHLTYPGHPTSQQAGHSSPSDSAVRVLLHSPGRPSSPRFSSLDLEEDSEVFKMLQENRQGRAAPRQSSSFRLLQEALEAEERGGTPAFVPSSLSSQASLPTSRALATPPKLHTCEKCSVNISNQAVRIQEGRYRHPGCYTCADCGLNLKMRGHFWVGNELYCEKHARQRYSMPGTLNSRA
As for B2, the binding entry in assay [3] is “binds”.
